These are yes or no findings as the source states them, for the method shown. In cells and extracts the contact can be indirect. Some results given as binding are weak or reduced against the parent protein; the word gives no strength. Each block holds one molecule with its values, some of them ahead of it.
Experiments:
[1] = target: T1, Thioredoxin-interacting protein (mouse (endogenous in primary hippocampal neurons)) (UniProt Q8BG60); test: co-IP; Capture and Release Reversible Immunoprecipitation System Kit (Merck Millipore); precipitation with TXNIP antibody (ab188865) or NLRP3 antibody (ab214185); rabbit/mouse IgG as negative control; sample not named
T1 sequence: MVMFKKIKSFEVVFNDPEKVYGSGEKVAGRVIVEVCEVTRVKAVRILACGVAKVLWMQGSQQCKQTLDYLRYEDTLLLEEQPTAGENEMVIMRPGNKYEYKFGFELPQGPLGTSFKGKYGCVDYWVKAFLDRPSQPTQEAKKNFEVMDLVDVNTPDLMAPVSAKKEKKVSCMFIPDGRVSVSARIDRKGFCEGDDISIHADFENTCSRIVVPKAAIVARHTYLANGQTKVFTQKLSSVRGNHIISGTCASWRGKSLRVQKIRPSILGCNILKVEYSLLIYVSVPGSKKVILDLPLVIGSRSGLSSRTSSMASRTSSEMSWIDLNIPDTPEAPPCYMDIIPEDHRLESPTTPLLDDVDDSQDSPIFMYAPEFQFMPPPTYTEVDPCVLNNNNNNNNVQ

Protein sequences, listed by entry. Tags and fused reporters are not part of them.
UniProt Q8R4B8: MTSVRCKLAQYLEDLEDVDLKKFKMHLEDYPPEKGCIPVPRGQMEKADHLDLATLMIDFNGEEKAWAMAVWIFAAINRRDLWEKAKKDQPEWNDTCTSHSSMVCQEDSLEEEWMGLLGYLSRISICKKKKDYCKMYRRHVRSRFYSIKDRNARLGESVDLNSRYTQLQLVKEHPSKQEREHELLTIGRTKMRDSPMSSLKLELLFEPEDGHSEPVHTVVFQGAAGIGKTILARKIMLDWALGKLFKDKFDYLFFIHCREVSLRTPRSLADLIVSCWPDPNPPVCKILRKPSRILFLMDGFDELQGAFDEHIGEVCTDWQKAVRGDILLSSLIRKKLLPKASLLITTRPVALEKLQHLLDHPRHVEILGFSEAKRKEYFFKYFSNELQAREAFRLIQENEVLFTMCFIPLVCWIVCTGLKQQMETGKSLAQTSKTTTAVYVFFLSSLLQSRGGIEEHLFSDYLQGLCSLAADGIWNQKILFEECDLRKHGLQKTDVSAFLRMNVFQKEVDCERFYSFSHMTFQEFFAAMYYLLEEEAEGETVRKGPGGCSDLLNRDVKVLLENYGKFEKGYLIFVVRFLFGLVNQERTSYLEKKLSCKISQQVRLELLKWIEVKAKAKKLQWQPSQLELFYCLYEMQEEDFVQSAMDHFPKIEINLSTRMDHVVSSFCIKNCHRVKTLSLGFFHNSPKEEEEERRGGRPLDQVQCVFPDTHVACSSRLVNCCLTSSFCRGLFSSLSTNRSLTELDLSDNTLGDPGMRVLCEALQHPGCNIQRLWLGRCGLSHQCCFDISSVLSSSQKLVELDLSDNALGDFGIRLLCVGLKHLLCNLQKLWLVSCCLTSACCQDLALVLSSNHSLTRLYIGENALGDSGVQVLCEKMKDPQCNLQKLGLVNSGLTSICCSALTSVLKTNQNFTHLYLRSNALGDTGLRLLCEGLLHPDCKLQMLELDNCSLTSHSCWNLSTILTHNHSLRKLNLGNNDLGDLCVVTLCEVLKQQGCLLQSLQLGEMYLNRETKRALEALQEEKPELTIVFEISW

[2] = target: NLR family, domain of pyrin containing 3 (mouse (endogenous in primary hippocampal neurons)) (UniProt Q8R4B8); test: as above

binding [1]: binds
Molecule: NLR family, domain of pyrin containing 3 (from UniProt Q8R4B8 1-1033)

binding [2]: binds
B1: Thioredoxin-interacting protein (protein, UniProt Q8BG60 1-397)
chain: T1 sequence

Source: paper PMC8806838
